Results published in US20140057807A1.
Results are given in words; binding and its absence hold for the method and conditions named. Binding can be weak; no strength is given.

B1: SEQ ID NO 130 (designed binder)
chain: NVSPPRRARVTDATETTITISWRTKTETITSFWVWAKPYSYYWGSIQRTIKPDVRSYTITGLQPGTWYAINLYTLTYRFWGDPVVIDAST
B2: SEQ ID NO 131 (designed binder)
chain: NVSPPRRARVTDATETTITISWRTKTETITYFGDVSAGPSSTYIESIQRTIKPDVRSYTITGLQPGTWYNIVLQTLYSWSYWPVVIDAST
B3: SEQ ID NO 132 (designed binder)
chain: NVSPPRRARVTDATETTITISWSTKTETITSFVVGARPYYYPYIQRTIKPDVRSYTITGLQPGTVYGIWLQTLRYYYGYTPVVIDAST
B4: SEQ ID NO 133 (designed binder)
chain: NVSPPRRARVTDATETTITISWRTKTETITAFEVVAHPNYDYYIQRTIKPDVRSYTITGLQPGTSYWIYLYTLYSRRYLPVVIDAST
B5: SEQ ID NO 134 (designed binder)
chain: NVSPPRRARVTDATETTITISWRTKTETITSFSVIAFPLRERAATIQRTIKPDVRSYTITGLQPGTLYSIILNTLWRYYPIPVVIDAST
B6: SEQ ID NO 135 (designed binder)
chain: NVSPPHRARVTDATETTITISWRTKTETITNFLVYAYPTEHVRIQRTIKPDVRSYTITGLQPGTKYWIYLYTLIYNMYYPVVIDAST
B7: SEQ ID NO 136 (designed binder)
chain: NVSPPRRARVTDATETTITISWRTKTETITGFSVWAQPGYLEEIQRTIKPDVRSYTITGLQPGTSYDSIALSTLGRYRWSDPVVIDAST
B8: SEQ ID NO 137 (designed binder)
chain: NVSPPRRARVTDATETTITISWRTKTETITQFHVTAGPHWVGRIQRTIKPDVRSYTITGLQPGTAYLIYALSTLRSYRYQWPVVIDAST
B9: SEQ ID NO 138 (designed binder)
chain: NVSPPRRARVTDATETTITISWRTKTETITYFHVSALPLVYGSYIQRTIKPDVRSYTITGLQPGTTYDIYLSTLNSHWLTAPVVIDAST
B10: SEQ ID NO 139 (designed binder)
chain: NVSPPRRARVTDATETTITISWRTKTETITRFYVEATPSAAANTSIQRTIKPDVRSYTITGLQPGTMYQIWLATLSYYASHYPVVIDAST
B11: SEQ ID NO 140 (designed binder)
chain: NVSPPRRARVTDATETTITISWRTKTETITSFGVTAKPVWSWGSIQRTIKPDVRSYTITGLQPGTGYAISLYTLLRYWYRYYPVVIDAST
B12: SEQ ID NO 141 (designed binder)
chain: NVSPPRRARVTDATETTITISWRTKTETITAFYVQAYPYSDHSIQRTIKPDVRSYTITGLQPGTYYDITLSTLRSYYYRPVVIDAST

What follows are binders tested against lysozyme (assay: cradle library selection hit).

Binder	binding
B1	binds
B2	binds
B3	binds
B4	binds
B5	binds
B6	binds
B7	binds
B8	binds
B9	binds
B10	binds
B11	binds
B12	binds
